# Data published in the supplement of paper PMC10032668.
# Amino acid sequences for entries named in this document (tags omitted).
# BUB1B, O60566, UniProt O60566, whole entry: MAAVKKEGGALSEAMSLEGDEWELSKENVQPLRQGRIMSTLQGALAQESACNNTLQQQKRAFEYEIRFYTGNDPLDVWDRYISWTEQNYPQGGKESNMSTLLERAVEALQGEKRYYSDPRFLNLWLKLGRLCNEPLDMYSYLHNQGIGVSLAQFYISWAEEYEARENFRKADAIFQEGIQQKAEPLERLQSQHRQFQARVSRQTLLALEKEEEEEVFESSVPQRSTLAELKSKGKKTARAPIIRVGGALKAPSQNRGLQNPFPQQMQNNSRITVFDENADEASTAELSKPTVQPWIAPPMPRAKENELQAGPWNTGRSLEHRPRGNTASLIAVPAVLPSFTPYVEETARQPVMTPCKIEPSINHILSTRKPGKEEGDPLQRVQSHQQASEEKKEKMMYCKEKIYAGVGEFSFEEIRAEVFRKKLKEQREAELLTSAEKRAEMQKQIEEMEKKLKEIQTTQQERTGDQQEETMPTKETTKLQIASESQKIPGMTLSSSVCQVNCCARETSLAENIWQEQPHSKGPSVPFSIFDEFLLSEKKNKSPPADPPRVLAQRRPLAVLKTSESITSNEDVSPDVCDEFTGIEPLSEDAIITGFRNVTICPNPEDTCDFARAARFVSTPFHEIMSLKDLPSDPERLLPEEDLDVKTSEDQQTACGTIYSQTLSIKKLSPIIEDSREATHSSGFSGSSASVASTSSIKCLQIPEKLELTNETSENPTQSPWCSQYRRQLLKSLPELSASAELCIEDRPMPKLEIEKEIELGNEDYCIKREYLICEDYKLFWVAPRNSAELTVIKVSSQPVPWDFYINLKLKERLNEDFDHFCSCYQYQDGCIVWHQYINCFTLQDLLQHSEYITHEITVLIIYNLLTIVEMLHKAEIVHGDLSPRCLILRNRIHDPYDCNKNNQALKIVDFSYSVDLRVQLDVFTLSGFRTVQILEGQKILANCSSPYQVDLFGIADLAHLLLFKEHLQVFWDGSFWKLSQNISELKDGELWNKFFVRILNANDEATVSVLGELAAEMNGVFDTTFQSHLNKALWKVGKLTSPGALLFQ
# CTNNB1, P35222, UniProt P35222, whole entry: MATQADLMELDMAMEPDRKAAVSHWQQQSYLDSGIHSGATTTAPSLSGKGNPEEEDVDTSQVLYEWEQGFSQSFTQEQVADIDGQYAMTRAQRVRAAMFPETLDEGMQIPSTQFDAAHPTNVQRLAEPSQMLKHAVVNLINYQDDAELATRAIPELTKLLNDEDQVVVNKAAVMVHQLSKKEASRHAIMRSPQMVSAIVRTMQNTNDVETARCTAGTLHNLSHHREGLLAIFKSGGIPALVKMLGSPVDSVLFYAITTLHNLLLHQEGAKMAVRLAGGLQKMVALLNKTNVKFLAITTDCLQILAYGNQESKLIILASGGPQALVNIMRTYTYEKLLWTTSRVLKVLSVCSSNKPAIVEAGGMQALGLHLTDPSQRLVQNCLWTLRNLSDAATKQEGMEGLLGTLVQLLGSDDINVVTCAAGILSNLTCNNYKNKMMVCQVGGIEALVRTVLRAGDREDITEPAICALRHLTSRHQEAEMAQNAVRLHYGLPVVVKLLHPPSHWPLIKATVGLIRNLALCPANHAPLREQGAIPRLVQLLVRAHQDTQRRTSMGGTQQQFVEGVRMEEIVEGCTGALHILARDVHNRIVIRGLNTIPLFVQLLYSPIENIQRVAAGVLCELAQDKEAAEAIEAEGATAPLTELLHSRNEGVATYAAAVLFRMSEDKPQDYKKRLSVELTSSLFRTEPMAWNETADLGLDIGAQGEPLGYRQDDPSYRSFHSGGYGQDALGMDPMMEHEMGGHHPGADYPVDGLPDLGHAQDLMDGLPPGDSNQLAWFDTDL
# MCM2, P49736, UniProt P49736, whole entry: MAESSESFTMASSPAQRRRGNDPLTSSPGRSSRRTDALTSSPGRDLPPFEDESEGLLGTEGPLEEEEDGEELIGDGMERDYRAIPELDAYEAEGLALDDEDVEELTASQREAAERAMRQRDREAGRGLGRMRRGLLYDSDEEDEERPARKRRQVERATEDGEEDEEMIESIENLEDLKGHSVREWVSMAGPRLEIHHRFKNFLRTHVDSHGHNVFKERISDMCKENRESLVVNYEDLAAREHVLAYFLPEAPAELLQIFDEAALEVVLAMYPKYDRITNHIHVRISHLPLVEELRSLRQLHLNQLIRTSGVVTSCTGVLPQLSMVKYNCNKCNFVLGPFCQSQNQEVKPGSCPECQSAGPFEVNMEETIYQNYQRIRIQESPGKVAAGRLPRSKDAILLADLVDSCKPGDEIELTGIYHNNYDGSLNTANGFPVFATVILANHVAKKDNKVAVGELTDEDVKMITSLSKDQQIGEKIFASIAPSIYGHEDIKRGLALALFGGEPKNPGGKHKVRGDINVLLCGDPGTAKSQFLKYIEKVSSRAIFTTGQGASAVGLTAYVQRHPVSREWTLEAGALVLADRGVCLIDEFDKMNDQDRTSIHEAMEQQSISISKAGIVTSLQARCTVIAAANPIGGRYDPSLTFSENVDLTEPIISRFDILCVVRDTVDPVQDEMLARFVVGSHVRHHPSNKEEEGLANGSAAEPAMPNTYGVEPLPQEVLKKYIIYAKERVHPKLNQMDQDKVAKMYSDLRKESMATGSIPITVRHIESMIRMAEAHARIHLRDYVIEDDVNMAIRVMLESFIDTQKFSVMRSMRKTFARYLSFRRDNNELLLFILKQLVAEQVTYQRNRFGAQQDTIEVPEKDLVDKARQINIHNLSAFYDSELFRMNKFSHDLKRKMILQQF
# NSUN2, Q08J23, UniProt Q08J23, whole entry: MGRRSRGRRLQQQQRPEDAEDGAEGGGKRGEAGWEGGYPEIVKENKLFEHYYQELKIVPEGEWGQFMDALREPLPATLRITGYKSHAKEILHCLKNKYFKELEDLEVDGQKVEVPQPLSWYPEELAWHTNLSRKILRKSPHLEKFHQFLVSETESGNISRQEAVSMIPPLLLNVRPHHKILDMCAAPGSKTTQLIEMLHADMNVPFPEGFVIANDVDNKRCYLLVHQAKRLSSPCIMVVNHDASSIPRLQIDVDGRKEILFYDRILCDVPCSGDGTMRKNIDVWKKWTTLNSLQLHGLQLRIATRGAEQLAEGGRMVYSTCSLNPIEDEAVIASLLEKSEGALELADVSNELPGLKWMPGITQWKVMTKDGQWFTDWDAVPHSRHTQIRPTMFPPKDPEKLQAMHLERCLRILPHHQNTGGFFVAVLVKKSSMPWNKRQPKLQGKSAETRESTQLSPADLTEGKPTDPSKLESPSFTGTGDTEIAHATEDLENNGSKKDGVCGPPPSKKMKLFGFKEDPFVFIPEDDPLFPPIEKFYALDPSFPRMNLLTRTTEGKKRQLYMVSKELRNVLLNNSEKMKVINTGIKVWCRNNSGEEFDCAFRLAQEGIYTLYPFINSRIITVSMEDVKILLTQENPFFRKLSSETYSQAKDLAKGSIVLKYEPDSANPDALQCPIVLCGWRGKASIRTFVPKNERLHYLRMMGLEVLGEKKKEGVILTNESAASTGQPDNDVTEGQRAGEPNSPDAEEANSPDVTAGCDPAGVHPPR
# OTUB1, Q96FW1, UniProt Q96FW1, whole entry: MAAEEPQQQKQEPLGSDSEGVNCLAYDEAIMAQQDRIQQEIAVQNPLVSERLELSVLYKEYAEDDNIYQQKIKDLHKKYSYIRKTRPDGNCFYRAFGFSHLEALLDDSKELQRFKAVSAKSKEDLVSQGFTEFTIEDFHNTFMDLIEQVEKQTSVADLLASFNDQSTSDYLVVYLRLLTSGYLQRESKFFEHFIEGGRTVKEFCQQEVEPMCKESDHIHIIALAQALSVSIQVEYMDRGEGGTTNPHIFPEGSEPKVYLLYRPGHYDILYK
# SDC2, P34741, UniProt P34741, whole entry: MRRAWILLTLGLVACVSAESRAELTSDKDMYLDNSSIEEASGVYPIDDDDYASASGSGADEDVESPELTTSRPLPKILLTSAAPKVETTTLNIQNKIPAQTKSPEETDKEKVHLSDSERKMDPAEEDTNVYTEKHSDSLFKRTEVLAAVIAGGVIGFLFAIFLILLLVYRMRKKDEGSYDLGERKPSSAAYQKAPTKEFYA
# SMARCC1, Q92922, UniProt Q92922, whole entry: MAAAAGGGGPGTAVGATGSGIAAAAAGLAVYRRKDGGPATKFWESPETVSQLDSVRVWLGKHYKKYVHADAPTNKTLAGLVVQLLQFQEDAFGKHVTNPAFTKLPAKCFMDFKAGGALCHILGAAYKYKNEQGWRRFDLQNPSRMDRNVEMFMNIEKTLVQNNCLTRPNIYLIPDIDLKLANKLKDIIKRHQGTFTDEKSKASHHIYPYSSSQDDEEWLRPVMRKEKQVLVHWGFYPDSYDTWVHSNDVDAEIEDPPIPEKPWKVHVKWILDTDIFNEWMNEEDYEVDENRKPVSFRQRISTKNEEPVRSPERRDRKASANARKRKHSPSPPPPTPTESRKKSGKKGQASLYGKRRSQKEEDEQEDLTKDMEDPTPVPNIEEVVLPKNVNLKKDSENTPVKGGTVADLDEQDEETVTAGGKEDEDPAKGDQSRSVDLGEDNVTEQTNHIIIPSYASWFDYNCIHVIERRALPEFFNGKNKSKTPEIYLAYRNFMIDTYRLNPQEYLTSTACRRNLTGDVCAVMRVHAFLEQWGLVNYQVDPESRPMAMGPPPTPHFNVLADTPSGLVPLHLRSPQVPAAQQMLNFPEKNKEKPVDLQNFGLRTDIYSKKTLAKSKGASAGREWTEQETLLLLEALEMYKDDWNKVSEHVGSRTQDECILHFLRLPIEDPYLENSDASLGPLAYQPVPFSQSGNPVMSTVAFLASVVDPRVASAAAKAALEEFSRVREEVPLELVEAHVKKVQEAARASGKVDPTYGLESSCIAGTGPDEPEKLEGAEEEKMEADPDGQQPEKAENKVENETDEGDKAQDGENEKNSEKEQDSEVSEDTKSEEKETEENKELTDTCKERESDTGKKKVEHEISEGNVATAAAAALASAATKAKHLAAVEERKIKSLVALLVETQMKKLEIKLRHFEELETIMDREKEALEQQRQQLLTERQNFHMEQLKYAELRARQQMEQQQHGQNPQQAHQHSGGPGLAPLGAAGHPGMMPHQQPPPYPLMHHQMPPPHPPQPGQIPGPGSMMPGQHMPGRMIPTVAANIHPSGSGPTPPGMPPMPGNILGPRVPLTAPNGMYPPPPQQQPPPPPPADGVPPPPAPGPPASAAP
# TARDBP, Q13148, UniProt Q13148, whole entry: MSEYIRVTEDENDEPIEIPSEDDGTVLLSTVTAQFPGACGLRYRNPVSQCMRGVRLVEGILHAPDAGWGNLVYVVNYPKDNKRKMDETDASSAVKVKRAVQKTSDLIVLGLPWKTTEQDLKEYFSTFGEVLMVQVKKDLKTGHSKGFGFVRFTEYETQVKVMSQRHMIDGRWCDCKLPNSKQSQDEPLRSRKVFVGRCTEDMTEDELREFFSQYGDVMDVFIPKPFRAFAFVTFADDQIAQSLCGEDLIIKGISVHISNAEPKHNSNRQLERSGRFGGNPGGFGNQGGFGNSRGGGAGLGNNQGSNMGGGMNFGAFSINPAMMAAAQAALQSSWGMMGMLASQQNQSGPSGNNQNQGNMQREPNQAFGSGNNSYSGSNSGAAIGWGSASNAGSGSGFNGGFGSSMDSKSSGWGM
# This is one part of the list. Only hits are listed; about a third recur on repeated control peptides.
# Legend:
# Assay in all cases: PRISMA enrichment of interactor (LFQ) in peptide spot vs all other peptide spots (log2 fold change); higher = stronger / more specific binding of the interactor to the peptide
# BUB1B, O60566 = biological target: BUB1B, O60566
# Procedure: (§1)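 PRISMA: 15-aa overlapping tiles (offset 8 aa) of 60 microproteins, plus SOS1/GLUT1 control peptides, were spot-synthesized on cellulose membranes in triplicate. Membranes were incubated with benzonase-treated HEK293T lysate, and bound proteins were identified by LC-MS/MS with LFQ. Enrichment is the log2 fold change of each protein in one spot versus all other spots. Only interactors passing the significance cutoff are listed.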
# BZW1, Q7L1Q6 = biological target: BZW1, Q7L1Q6
# Procedure: as §1
# C7orf50, Q9BRJ6 = biological target: C7orf50, Q9BRJ6
# Procedure: as §1
# CAPZA1, P52907 = biological target: CAPZA1, P52907
# Procedure: as §1
# CHAF1B, Q13112 = biological target: CHAF1B, Q13112
# Procedure: as §1
# COL4A1, P02462 = biological target: COL4A1, P02462
# Procedure: as §1
# COQ5, Q5HYK3 = biological target: COQ5, Q5HYK3
# Procedure: as §1
# CTNNB1, P35222 = biological target: CTNNB1, P35222
# Procedure: as §1
# DUSP3, P51452 = biological target: DUSP3, P51452
# Procedure: as §1
# EARS2, Q5JPH6 = biological target: EARS2, Q5JPH6
# Procedure: as §1
# GPATCH8, Q9UKJ3 = biological target: GPATCH8, Q9UKJ3
# Procedure: as §1
# LARP7, Q4G0J3 = biological target: LARP7, Q4G0J3
# Procedure: as §1
# LENG1, Q96BZ8 = biological target: LENG1, Q96BZ8
# Procedure: as §1
# MAZ, P56270 = biological target: MAZ, P56270
# Procedure: as §1
# MCM2, P49736 = biological target: MCM2, P49736
# Procedure: as §1
# MRPS15, P82914 = biological target: MRPS15, P82914
# Procedure: as §1
# MRPS31, Q92665 = biological target: MRPS31, Q92665
# Procedure: as §1
# NDUFB10, O96000 = biological target: NDUFB10, O96000
# Procedure: as §1
# NIFK, Q9BYG3 = biological target: NIFK, Q9BYG3
# Procedure: as §1
# NSUN2, Q08J23 = biological target: NSUN2, Q08J23
# Procedure: as §1
# NTMT1, Q9BV86 = biological target: NTMT1, Q9BV86
# Procedure: as §1
# OTUB1, Q96FW1 = biological target: OTUB1, Q96FW1
# Procedure: as §1
# PCM1, Q15154 = biological target: PCM1, Q15154
# Procedure: as §1
# POLR2E, P19388 = biological target: POLR2E, P19388
# Procedure: as §1
# POP4, O95707 = biological target: POP4, O95707
# Procedure: as §1
# PPP6R3, Q5H9R7 = biological target: PPP6R3, Q5H9R7
# Procedure: as §1
# PRRC2B, Q5JSZ5 = biological target: PRRC2B, Q5JSZ5
# Procedure: as §1
# PTPMT1, Q8WUK0 = biological target: PTPMT1, Q8WUK0
# Procedure: as §1
# RAB5A, P20339 = biological target: RAB5A, P20339
# Procedure: as §1
# RANBP2, P49792 = biological target: RANBP2, P49792
# Procedure: as §1
# RBM3, P98179 = biological target: RBM3, P98179
# Procedure: as §1
# RBM7, Q9Y580 = biological target: RBM7, Q9Y580
# Procedure: as §1
# RRP12, Q5JTH9 = biological target: RRP12, Q5JTH9
# Procedure: as §1
# SDC2, P34741 = biological target: SDC2, P34741
# Procedure: as §1
# SERPINH1, P50454 = biological target: SERPINH1, P50454
# Procedure: as §1
# SF3B4, Q15427 = biological target: SF3B4, Q15427
# Procedure: as §1
# SLU7, O95391 = biological target: SLU7, O95391
# Procedure: as §1
# SMARCC1, Q92922 = biological target: SMARCC1, Q92922
# Procedure: as §1
# SOAT1, P35610 = biological target: SOAT1, P35610
# Procedure: as §1
# SURF6, O75683 = biological target: SURF6, O75683
# Procedure: as §1
# TARDBP, Q13148 = biological target: TARDBP, Q13148
# Procedure: as §1
# THRAP3, Q9Y2W1 = biological target: THRAP3, Q9Y2W1
# Procedure: as §1
# TXNDC5, Q8NBS9 = biological target: TXNDC5, Q8NBS9
# Procedure: as §1
# VMP1, Q96GC9 = biological target: VMP1, Q96GC9
# Procedure: as §1
# WDR5, P61964 = biological target: WDR5, P61964
# Procedure: as §1
# YWHAG, P61981 = biological target: YWHAG, P61981
# Procedure: as §1
# ZC3H14, Q6PJT7 = biological target: ZC3H14, Q6PJT7
# Procedure: as §1
binder,measurement,setting,value
LGNNAGGTMHWNDTR [PVT1],PRISMA enrichment of interactor (log2),"BUB1B, O60566",5.58
same,PRISMA enrichment of interactor (log2),"BZW1, Q7L1Q6",5.88
same,PRISMA enrichment of interactor (log2),"C7orf50, Q9BRJ6",9.26
same,PRISMA enrichment of interactor (log2),"CAPZA1, P52907",4.56
same,PRISMA enrichment of interactor (log2),"CHAF1B, Q13112",4.46
same,PRISMA enrichment of interactor (log2),"COL4A1, P02462",4.89
same,PRISMA enrichment of interactor (log2),"COQ5, Q5HYK3",5.46
same,PRISMA enrichment of interactor (log2),"CTNNB1, P35222",4.74
same,PRISMA enrichment of interactor (log2),"DUSP3, P51452",5.07
same,PRISMA enrichment of interactor (log2),"EARS2, Q5JPH6",6.3
same,PRISMA enrichment of interactor (log2),"GPATCH8, Q9UKJ3",6.11
same,PRISMA enrichment of interactor (log2),"LARP7, Q4G0J3",4.61
same,PRISMA enrichment of interactor (log2),"LENG1, Q96BZ8",4.15
same,PRISMA enrichment of interactor (log2),"MAZ, P56270",5.23
same,PRISMA enrichment of interactor (log2),"MCM2, P49736",7.77
same,PRISMA enrichment of interactor (log2),"MRPS15, P82914",10.5
same,PRISMA enrichment of interactor (log2),"MRPS31, Q92665",7.33
same,PRISMA enrichment of interactor (log2),"NDUFB10, O96000",7.08
same,PRISMA enrichment of interactor (log2),"NIFK, Q9BYG3",4.65
same,PRISMA enrichment of interactor (log2),"NSUN2, Q08J23",5.63
same,PRISMA enrichment of interactor (log2),"NTMT1, Q9BV86",5.91
same,PRISMA enrichment of interactor (log2),"OTUB1, Q96FW1",12.4
same,PRISMA enrichment of interactor (log2),"PCM1, Q15154",7.33
same,PRISMA enrichment of interactor (log2),"POLR2E, P19388",5.18
same,PRISMA enrichment of interactor (log2),"POP4, O95707",9.53
same,PRISMA enrichment of interactor (log2),"PPP6R3, Q5H9R7",5.23
same,PRISMA enrichment of interactor (log2),"PRRC2B, Q5JSZ5",5.62
same,PRISMA enrichment of interactor (log2),"PTPMT1, Q8WUK0",5.3
same,PRISMA enrichment of interactor (log2),"RAB5A, P20339",6.8
same,PRISMA enrichment of interactor (log2),"RANBP2, P49792",5.9
same,PRISMA enrichment of interactor (log2),"RBM3, P98179",6.45
same,PRISMA enrichment of interactor (log2),"RBM7, Q9Y580",4.37
same,PRISMA enrichment of interactor (log2),"RRP12, Q5JTH9",4.84
same,PRISMA enrichment of interactor (log2),"SDC2, P34741",4.46
same,PRISMA enrichment of interactor (log2),"SERPINH1, P50454",4.89
same,PRISMA enrichment of interactor (log2),"SF3B4, Q15427",5.49
same,PRISMA enrichment of interactor (log2),"SLU7, O95391",7.14
same,PRISMA enrichment of interactor (log2),"SMARCC1, Q92922",6.13
same,PRISMA enrichment of interactor (log2),"SOAT1, P35610",5.76
same,PRISMA enrichment of interactor (log2),"SURF6, O75683",5.23
same,PRISMA enrichment of interactor (log2),"TARDBP, Q13148",5.7
same,PRISMA enrichment of interactor (log2),"THRAP3, Q9Y2W1",6.34
same,PRISMA enrichment of interactor (log2),"TXNDC5, Q8NBS9",6.81
same,PRISMA enrichment of interactor (log2),"VMP1, Q96GC9",4.33
same,PRISMA enrichment of interactor (log2),"WDR5, P61964",7.34
same,PRISMA enrichment of interactor (log2),"YWHAG, P61981",5.41
same,PRISMA enrichment of interactor (log2),"ZC3H14, Q6PJT7",5.96

# A different layout for part of the listing above.
binder	measurement	setting	value
LGNNAGGTMHWNDTR [PVT1]	PRISMA enrichment of interactor (log2)	OTUB1, Q96FW1	12.4
same	PRISMA enrichment of interactor (log2)	PPP6R3, Q5H9R7	5.23
